Measurements reported in PubChem BioAssay AID652243 (Drosophila RNAi Screening Center, 2013)
In all, the deposit lists about 24,000 reagents; below is an unselected part of those that have a named target and a result. In the full data, 246 (1%) are marked active. 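Plates not normalised; calls are printed but the firefly/Renilla ratio behind them is not deposited; fold cut for lowering reported inconsistently.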 Raw values vary from plate to plate and are shown uncorrected. Names joined by + are all predicted targets of the reagent. Not given: the amount of reagent.

Test: 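Fly regulators of androgen-dependent reporter output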 (primary screen)
System: Drosophila S2R+ cells
Reagents: long dsRNA against Drosophila genes
Duration: 72 h (48 h, then 24 h hormone)
Treatment: synthetic androgen R1881 at 10 nM for 24 h
Measured: 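Firefly light from an androgen-responsive reporter and Renilla control light per well, raw and unnormalised, for each of two replicates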
Direction: firefly reporter light: higher = more light from androgen-responsive reporter; Renilla control light: higher = more constitutive control signal (cell number, transfection)
Call rule: 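Across duplicate plates, a knock-down whose log firefly/Renilla ratio shifted a set fold down or up from the GFP/LacZ control mean was a hit; the downward cut appears as both 1.5 and 3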
Meaning of the calls: active = hit: reporter lowered or raised; inactive = no hit

{"gene": "Rpp20 + CG33932", "dsRNA": "DRSC19467", "firefly reporter light, replicate 1": 1.32e5, "firefly reporter light, replicate 2": 1.11e5, "Renilla control light, replicate 1": 5.61e5, "Renilla control light, replicate 2": 2.32e5, "activity call": "inactive"}
{"gene": "alphaTub84B (alpha-Tubulin at 84B)", "dsRNA": "DRSC12622", "firefly reporter light, replicate 1": 42323, "firefly reporter light, replicate 2": 72991, "Renilla control light, replicate 1": 1.46e6, "Renilla control light, replicate 2": 1.52e6, "activity call": "inactive"}
{"gene": "alphaTub84B (alpha-Tubulin at 84B)", "dsRNA": "DRSC25011", "firefly reporter light, replicate 1": 2.96e5, "firefly reporter light, replicate 2": 2.86e5, "Renilla control light, replicate 1": 6.30e5, "Renilla control light, replicate 2": 5.33e5, "activity call": "inactive"}
{"gene": "Acox57D-d (acyl-Coenzyme A oxidase at 57D distal)", "dsRNA": "DRSC04561", "firefly reporter light, replicate 1": 7.26e5, "firefly reporter light, replicate 2": 5.46e5, "Renilla control light, replicate 1": 2.26e6, "Renilla control light, replicate 2": 1.90e6, "activity call": "inactive"}
{"gene": "Acox57D-d (acyl-Coenzyme A oxidase at 57D distal)", "dsRNA": "DRSC30108", "firefly reporter light, replicate 1": 8.62e5, "firefly reporter light, replicate 2": 7.28e5, "Renilla control light, replicate 1": 1.17e6, "Renilla control light, replicate 2": 1.13e6, "activity call": "inactive"}
{"gene": "alpha-Est4 (alpha-Esterase-4)", "dsRNA": "DRSC12616", "firefly reporter light, replicate 1": 74401, "firefly reporter light, replicate 2": 56849, "Renilla control light, replicate 1": 1.11e6, "Renilla control light, replicate 2": 1.20e6, "activity call": "inactive"}
{"gene": "alpha-Est4 (alpha-Esterase-4)", "dsRNA": "DRSC27280", "firefly reporter light, replicate 1": 3.39e5, "firefly reporter light, replicate 2": 2.81e5, "Renilla control light, replicate 1": 6.63e5, "Renilla control light, replicate 2": 6.59e5, "activity call": "inactive"}
{"gene": "CG15772", "dsRNA": "DRSC18078", "firefly reporter light, replicate 1": 1.69e5, "firefly reporter light, replicate 2": 2.73e5, "Renilla control light, replicate 1": 1.84e6, "Renilla control light, replicate 2": 1.56e6, "activity call": "inactive"}
{"gene": "sls (sallimus)", "dsRNA": "DRSC08528", "firefly reporter light, replicate 1": 1.63e6, "firefly reporter light, replicate 2": 1.22e6, "Renilla control light, replicate 1": 2.08e6, "Renilla control light, replicate 2": 1.87e6, "activity call": "inactive"}
{"gene": "sls (sallimus)", "dsRNA": "DRSC08540", "firefly reporter light, replicate 1": 83114, "firefly reporter light, replicate 2": 97078, "Renilla control light, replicate 1": 8.94e5, "Renilla control light, replicate 2": 9.51e5, "activity call": "inactive"}
{"gene": "sls (sallimus)", "dsRNA": "DRSC08670", "firefly reporter light, replicate 1": 47822, "firefly reporter light, replicate 2": 56462, "Renilla control light, replicate 1": 9.67e5, "Renilla control light, replicate 2": 1.12e6, "activity call": "inactive"}
{"gene": "sls (sallimus)", "dsRNA": "DRSC36617", "activity call": "inactive"}
{"gene": "sls (sallimus)", "dsRNA": "DRSC36618", "activity call": "inactive"}

2 of these entries, set out differently:
alpha-Est4 (alpha-Esterase-4) [DRSC12616] — firefly reporter light, replicate 1: 74401; firefly reporter light, replicate 2: 56849; Renilla control light, replicate 1: 1.11e6; Renilla control light, replicate 2: 1.20e6; activity call: inactive
alpha-Est4 (alpha-Esterase-4) [DRSC27280] — firefly reporter light, replicate 1: 3.39e5; firefly reporter light, replicate 2: 2.81e5; Renilla control light, replicate 1: 6.63e5; Renilla control light, replicate 2: 6.59e5; activity call: inactive
